Data as given in PubChem BioAssay AID1671195 (Yale University, 2021)
Shown is an unselected part of about 22,000 deposited reagents. About 1,510 of them (6.9%) were called active. 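Active includes knockdowns raising or lowering LDL uptake; positive z-scores mean more uptake, negative mean less.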 A number with no mark means an inactive call.

Test: 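Regulators of LDL receptor activity judged by labelled LDL uptake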 (primary screen)
Cell system: human Huh7 hepatoma cells
Knock-down reagent: siRNA pool against human genes, 18 nM
Time to read-out: about 2 to 2.5 days of knockdown, then 8 h LDL uptake
Challenge: DiI-labelled LDL at 30 µg/ml for 8 h, in lipoprotein-deficient serum medium
Detection: 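Fluorescent LDL signal imaged in cells, scaled to the plate median, robust z-score for each replicate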
Direction: robust z-score: higher = more LDL uptake after knockdown
Active means: 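a gene counts as active if at least two replicate z-scores exceed ±2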

gene symbol	robust z-score, replicate 1	robust z-score, replicate 2	robust z-score, replicate 3
TLX1 (T cell leukemia homeobox 1)	-1.02	-0.0126	-0.351
LOC147941 (retired record)	-0.802	-0.0153	-0.471
PGCKA1 (PDCD10 and GCKIII kinases associated 1)	-0.712	0.311	-0.858
SVIL (supervillin)	2.58 (active)	2.14	2.48
DGAT2-DT (DGAT2 divergent transcript)	0.986	0.712	0.813
KCNE4	-2.55 (active)	-3.76	-0.718
CAMK2N1 (calcium/calmodulin dependent protein kinase II inhibitor 1)	0.249	0.35	0.757
PLCG2 (phospholipase C gamma 2)	-0.719	-0.962	-1.31
ATP6V1D (ATPase H+ transporting V1 subunit D)	0.157	-0.404	-0.181
LOC401506 (retired record)	0.114	0.586	0.501
MYH10 (myosin heavy chain 10)	0.345	-0.321	0.192
VCF2 (VCP nuclear cofactor family member 2)	-0.62	-0.644	-0.389
LINC02893 (long independently transcribed non-coding RNA 2893)	1.27	0.931	1.43
LOC401471	-0.191	0.455	-0.0018
INS (insulin)	-1.43	-1.35	-1.43
PTGES (prostaglandin E synthase)	-0.636	-0.923	-1.59
RBM15 (RNA binding motif protein 15)	-0.0265	0.18	0.366
PPP4R4 (protein phosphatase 4 regulatory subunit 4)	-0.476	-0.352	-0.394
NFKBIE (NFKB inhibitor epsilon)	-1.48 (active)	-1.96	-2.25
GNAI1 (G protein subunit alpha i1)	-1.87	-1.56	-1.56
ADSS2 (adenylosuccinate synthase 2)	0.0958	-0.121	0.852
MKNK1 (MAPK interacting serine/threonine kinase 1)	0.0602	-0.331	-0.834
GGT5 (gamma-glutamyltransferase 5)	-0.0721	0.947	0.215
HELB (DNA helicase B)	-1.28	-0.377	-0.288
NR4A3 (nuclear receptor subfamily 4 group A member 3)	1.04	0.356	-0.137
ZBTB25 (zinc finger and BTB domain containing 25)	2.35 (active)	2.81	1.83
TTBK2 (tau tubulin kinase 2)	-1.19	-1.68	-1.89
EFCAB11 (EF-hand calcium binding domain 11)	-1.61	-1.5	-1.43

Limited to “robust z-score, replicate 2” (9 entries from above):
DGAT2-DT (DGAT2 divergent transcript): 0.712
KCNE4: -3.76 (active)
CAMK2N1 (calcium/calmodulin dependent protein kinase II inhibitor 1): 0.35
PLCG2 (phospholipase C gamma 2): -0.962
ATP6V1D (ATPase H+ transporting V1 subunit D): -0.404
LOC401506 (retired record): 0.586
MYH10 (myosin heavy chain 10): -0.321
VCF2 (VCP nuclear cofactor family member 2): -0.644
LINC02893 (long independently transcribed non-coding RNA 2893): 0.931

Further entries follow.
gene symbol	robust z-score, replicate 1	robust z-score, replicate 2	robust z-score, replicate 3
SENP8 (SUMO peptidase family member, NEDD8 specific)	0.325	-0.109	1.42
COA1 (cytochrome c oxidase assembly factor 1)	-0.451	-0.14	-0.925
ZBTB32 (zinc finger and BTB domain containing 32)	-0.274	-0.965	-0.445
RELT (RELT TNF receptor)	-0.0735	-0.141	-0.614
DPEP2 (dipeptidase 2)	-0.323	0.349	0.114
PPIAP16 (peptidylprolyl isomerase A pseudogene 16)	-0.0749	-0.605	-0.413
ZNF778 (zinc finger protein 778)	0.83	0.0025	0.408
AGFG2 (ArfGAP with FG repeats 2)	0.0398	-0.0111	0.729
NPY2R (neuropeptide Y receptor Y2)	-1.51	-1.37	-1.19
MRGPRX1 (MAS related GPR family member X1)	-0.263	-0.0624	-0.113
MRPL32 (mitochondrial ribosomal protein L32)	-0.156	-0.562	-0.113
CCL1 (C-C motif chemokine ligand 1)	-0.117	0.0345	0.172
CHRDL1 (chordin like 1)	0.521	-0.079	0.0416
CUL7 (cullin 7)	-0.766	0.0336	0.0694
SNF8 (SNF8 subunit of ESCRT-II)	-0.402	1.05	-0.962
LINC00907 (long independently transcribed non-coding RNA 907)	-1.18	-1.04	-1.4
AFF1 (ALF transcription elongation factor 1)	0.857	0.744	0.247
LOC400464 (ubiquitin conjugating enzyme E2 Q2 pseudogene)	-0.616	0.431	0.178
CRHBP (corticotropin releasing hormone binding protein)	1.35	1.23	2.57
WDFY2 (WD repeat and FYVE domain containing 2)	-0.752	-0.169	-0.628
TENM3-AS1 (TENM3 antisense RNA 1)	-0.493	-0.331	-0.563
RPL23AP14 (ribosomal protein L23a pseudogene 14)	-2.1 (active)	-2.04	-2.39
PIWIL1 (piwi like RNA-mediated gene silencing 1)	0.205	-0.482	0.607
OR2G2 (olfactory receptor family 2 subfamily G member 2)	1.01	1.09	1.93
DUT (deoxyuridine triphosphatase)	0.422	0.169	0.342
ANKRD30B (ankyrin repeat domain 30B)	-0.859	-0.298	-0.488
SEC11C (SEC11 homolog C, signal peptidase complex subunit)	1.39	0.814	1.54
PPM1B (protein phosphatase, Mg2+/Mn2+ dependent 1B)	0.0372	-0.416	-0.549
COQ4 (coenzyme Q4)	0.0206	-1.14	0.0724
GLB1 (galactosidase beta 1)	-0.152	-0.224	-0.246
ANKRD13D (ankyrin repeat domain 13D)	0.0825	0.000958	0.375
LOC440111 (retired record)	0.397	0.251	0.37
FOXO1 (forkhead box O1)	0.365	0.546	0.314
SBDS (SBDS ribosome maturation factor)	-1.29	-0.884	-0.503
LHFPL5 (LHFPL tetraspan subfamily member 5)	0.227	-0.0215	0.483
RBMS2 (RNA binding motif single stranded interacting protein 2)	1.26	2.76	1.12
HSPB1 (heat shock protein family B (small) member 1)	-1.42	-1.49	-1.41
SMS (spermine synthase)	1.08	1.96	1.4
DLX5 (distal-less homeobox 5)	-1.75	-1.43	-1.93
IRS2 (insulin receptor substrate 2)	1.04	-0.413	-0.166
